Reference: article PMC12743421
No constants are given. Whether binding was seen depends on the method and setting. Binding seen in cells or lysates may run through a third protein. Some entries that bind do so weakly or less than the wild type.

By UniProt entry, the sequences of proteins in these tests, tags left out.
UniProt F1LP64: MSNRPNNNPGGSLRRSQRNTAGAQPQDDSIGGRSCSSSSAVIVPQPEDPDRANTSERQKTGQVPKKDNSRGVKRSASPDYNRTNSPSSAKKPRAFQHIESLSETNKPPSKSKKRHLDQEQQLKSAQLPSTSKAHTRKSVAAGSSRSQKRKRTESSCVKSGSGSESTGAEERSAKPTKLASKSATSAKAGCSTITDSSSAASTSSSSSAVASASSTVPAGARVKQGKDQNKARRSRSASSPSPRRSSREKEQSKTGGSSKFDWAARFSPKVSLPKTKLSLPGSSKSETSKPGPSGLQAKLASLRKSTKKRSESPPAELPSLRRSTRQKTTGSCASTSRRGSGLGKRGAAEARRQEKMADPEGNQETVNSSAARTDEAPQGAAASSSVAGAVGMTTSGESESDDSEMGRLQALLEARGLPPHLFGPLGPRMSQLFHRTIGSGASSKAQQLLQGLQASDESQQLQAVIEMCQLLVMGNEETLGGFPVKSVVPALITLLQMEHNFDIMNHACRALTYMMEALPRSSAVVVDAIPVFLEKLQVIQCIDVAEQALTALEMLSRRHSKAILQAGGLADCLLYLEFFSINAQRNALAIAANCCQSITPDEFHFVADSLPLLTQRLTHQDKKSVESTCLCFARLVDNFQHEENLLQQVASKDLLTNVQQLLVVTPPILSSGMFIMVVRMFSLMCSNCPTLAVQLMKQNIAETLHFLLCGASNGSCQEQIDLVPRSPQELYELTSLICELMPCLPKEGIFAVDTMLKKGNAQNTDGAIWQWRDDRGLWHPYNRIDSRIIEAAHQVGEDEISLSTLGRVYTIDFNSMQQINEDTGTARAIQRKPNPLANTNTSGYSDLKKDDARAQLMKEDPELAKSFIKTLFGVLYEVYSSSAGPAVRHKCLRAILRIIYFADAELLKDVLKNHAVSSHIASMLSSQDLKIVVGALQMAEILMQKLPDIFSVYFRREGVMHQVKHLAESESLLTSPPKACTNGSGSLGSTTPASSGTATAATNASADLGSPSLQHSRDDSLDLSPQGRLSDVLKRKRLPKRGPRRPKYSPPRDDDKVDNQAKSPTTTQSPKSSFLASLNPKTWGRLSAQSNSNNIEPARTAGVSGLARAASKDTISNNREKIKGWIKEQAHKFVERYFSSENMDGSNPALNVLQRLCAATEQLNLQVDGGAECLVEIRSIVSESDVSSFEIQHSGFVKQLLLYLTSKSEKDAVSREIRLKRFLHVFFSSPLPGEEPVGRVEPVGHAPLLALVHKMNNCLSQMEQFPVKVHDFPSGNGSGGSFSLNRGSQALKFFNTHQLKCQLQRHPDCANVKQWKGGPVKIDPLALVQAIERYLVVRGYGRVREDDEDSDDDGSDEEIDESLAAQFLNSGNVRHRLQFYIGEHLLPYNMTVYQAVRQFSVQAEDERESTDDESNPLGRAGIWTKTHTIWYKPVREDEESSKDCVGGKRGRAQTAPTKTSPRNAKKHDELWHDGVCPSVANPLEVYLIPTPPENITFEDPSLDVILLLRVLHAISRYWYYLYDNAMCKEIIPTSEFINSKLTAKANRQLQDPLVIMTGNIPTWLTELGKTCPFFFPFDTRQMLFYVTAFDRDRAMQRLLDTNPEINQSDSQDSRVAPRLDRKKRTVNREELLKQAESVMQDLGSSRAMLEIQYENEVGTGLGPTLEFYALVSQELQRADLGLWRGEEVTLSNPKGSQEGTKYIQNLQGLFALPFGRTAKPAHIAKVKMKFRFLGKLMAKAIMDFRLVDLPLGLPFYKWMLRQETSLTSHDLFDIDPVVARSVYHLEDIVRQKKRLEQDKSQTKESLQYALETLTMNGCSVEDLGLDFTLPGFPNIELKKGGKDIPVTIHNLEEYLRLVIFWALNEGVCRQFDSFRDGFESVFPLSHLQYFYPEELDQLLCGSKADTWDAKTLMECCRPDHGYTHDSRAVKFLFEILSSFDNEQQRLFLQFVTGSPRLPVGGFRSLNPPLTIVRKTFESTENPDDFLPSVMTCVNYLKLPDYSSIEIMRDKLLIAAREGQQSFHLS

Target: T1, Cyclin-dependent kinase 4 (rat (endogenous in primary ADSCs)) (UniProt P35426)
T1 sequence: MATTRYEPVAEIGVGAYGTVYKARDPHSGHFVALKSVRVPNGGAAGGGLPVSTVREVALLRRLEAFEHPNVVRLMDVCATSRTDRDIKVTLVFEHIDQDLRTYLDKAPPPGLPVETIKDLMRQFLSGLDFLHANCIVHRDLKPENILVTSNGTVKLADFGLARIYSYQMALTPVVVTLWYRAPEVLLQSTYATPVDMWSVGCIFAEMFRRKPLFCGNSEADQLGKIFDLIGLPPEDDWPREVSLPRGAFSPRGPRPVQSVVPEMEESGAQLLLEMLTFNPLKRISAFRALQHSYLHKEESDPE
Assay: co-IP; anti-CDK4 antibody (Abcam, ab226474) with a commercial Co-IP kit (Thermo, 26149) on ADSC lysates, control or PA-treated (500 umol/l sodium palmitate, 12 h); precipitate read by WB

binding: binds
Substance: E3 ubiquitin ligase TRIP12 (from UniProt F1LP64 1-2025) (enzyme)
